# Test results: patent US10086007B2, “Materials and methods for treatment of cystic fibrosis and for induction of ion secretion” (priority 2012, dated 2018)
# At least one compound was matched to its structure with a doubt left.
# System: villus and crypt cells from ileum
# Assay: Colorimetric intracellular cAMP measurement
# Format: cell-based, mouse
# Settings: forskolin treatment, 45 minutes
compound,measurement,setting,value
"C=C[C@@]1(C)CC(=O)[C@]2(O)[C@@]3(C)[C@@H](O)CCC(C)(C)[C@@H]3[C@H](O)[C@H](OC(C)=O)[C@@]2(C)O1 [Forskolin, forskolin]",intracellular cAMP levels,,significantly increases
same,intracellular cAMP levels,listed as forskolin,increases intracellular cAMP levels
